# Test results taken from the supplement of paper PMC10735217.
# Structures can show the parent of a compound that is named as a salt. This is one part of the list. Single values are uncertain here, since repeats match poorly.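 In a drug-repurposing library screen, luminescence reads luciferase driven by eight TEAD-binding elements, stably integrated into human kidney-derived cells. Compounds scoring over five robust Z scores above the plate mean are called hits.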
# System: HEK293A TEAD-LUC reporter
# Experiment: TEAD-luciferase reporter activity (YAP activation), robust Z score vs plate; higher = stronger YAP/TEAD activation
# Conditions: 24 h
SMILES,TEAD-luciferase reporter activity (compound concentration: 200 nM),TEAD-luciferase reporter activity (compound concentration: 2 uM),TEAD-luciferase reporter activity (compound concentration: 10 uM)
CCc1ncnc2ccc(CCc3cc(OC)ccc3OC)cc12,inactive: 0.59,inactive: -2.05,inactive: -1.69
CCCCCCCCCCCCCCCCCCOP(=O)([O-])OCC[N+]1(C)CCCCC1,inactive: 0.358,inactive: -0.807,inactive: 0.354
CCOC(=O)[C@@H](N)Cc1ccc(-c2cc(O[C@H](c3ccc(Cl)cc3-n3ccc(C)n3)C(F)(F)F)nc(N)n2)cc1 [Telotristat etiprate],inactive: 0.68,inactive: -1.31,inactive: -3.9
C/C=C/C/C=C/CCC(=O)[C@H]1O[C@H]1C(N)=O,inactive: -2.5,inactive: -0.4,inactive: -0.454
O=Cc1cccc(N2CCN(C(=O)N3CCCCC3)CC2=O)c1,inactive: -1.41,–,inactive: 1.37
OC[C@H]1O[C@@H](Oc2cc3c(O)cc(O)cc3[o+]c2-c2ccc(O)c(O)c2)[C@H](O[C@@H]2OC[C@@H](O)[C@H](O)[C@H]2O)[C@@H](O)[C@@H]1O [Cyanidin 3-sambubioside],inactive: 0.427,inactive: -0.136,inactive: 0.331
C[C@]12CCC(=O)C=C1CC[C@@H]1[C@@H]2[C@@H](O)C[C@@]2(C)[C@H]1CC[C@]2(O)C(=O)CS [Tixocortol],inactive: 0.988,inactive: 2.06,inactive: -0.149
CC(=O)O[C@@H](C[C@H](Cc1ccccc1)NC(=O)OCc1cccnc1)[C@H](Cc1ccccc1)NC(=O)[C@@H](NC(=O)OCc1ccccn1)C(C)C,inactive: 4.49,inactive: -1.23,inactive: -0.822
Cc1nc2c(N)nc3cccnc3c2n1CC(C)C,inactive: 1.03,inactive: -1.56,inactive: 1.22
O=c1nc(-c2ccccc2)c2cc(Cl)ccc2n1CC(F)(F)F [fluquazone],inactive: 1.63,inactive: -2.26,inactive: 3.49
Cc1c(Cc2ccc3ccccc3n2)c2cc(F)ccc2n1CC(=O)O,inactive: -2.44,inactive: -1.13,inactive: 1.61
O=C(O)CCc1ccc(CCN2CCCN(c3nc4ccccc4n3Cc3ccc(F)cc3)CCC2)cc1,inactive: -0.222,inactive: -0.955,inactive: 0.116
CCC(C)N1CCC2(CC1)N=C1C(=C3NC(=O)/C(C)=C\C=C/[C@H](C)[C@H](O)[C@@H](C)C(O)[C@@H](C)[C@H](O)[C@H](C)[C@@H](OC)/C=C\O[C@@]4(C)Oc5c(C)c(O)c(c1c5C4=O)C3=O)N2 (stereo partly specified),inactive: -0.885,inactive: 1.73,active: 5.63
CNCCON=c1c2ccccc2ccc2ccccc12 [demexiptiline],inactive: -0.663,inactive: 1.69,inactive: -0.633
CCCN1CCCC12Cc1ccccc1CN(C(C)=O)C2 (stereo unspecified),inactive: -1.61,–,inactive: -1.61
COc1ccc2c(c1OCc1ccccc1)C[C@@H](C(=O)O)N(C(=O)C(c1ccccc1)c1ccccc1)C2,inactive: 0.497,inactive: -0.139,inactive: -0.0928
"Nc1c(CC(=O)O)cccc1C(=O)c1ccc(Br)cc1 [bromfenac (low concentration), Bausch &amp]",inactive: -1.28,–,inactive: -0.027
"Nc1c(CC(=O)O)cccc1C(=O)c1ccc(Br)cc1 [bromfenac (low concentration), Bausch &amp_:_ Lomb-1]",–,inactive: -1.64,–
C[C@@H]1NC(=O)[C@H](CC(=O)O)NC1=O [Aspartyl-alanyl-diketopiperazine],inactive: 0.0692,inactive: -0.952,inactive: -0.0217
Cc1cc(C(=O)NC2CC2)ccc1NC(=O)c1cnn(-c2ncccc2C(F)(F)F)c1C,inactive: 1.04,inactive: -0.981,inactive: -0.182
CN(C)Cc1ccc(CSCCNC2=NS(=O)(=O)c3cscc32)o1,inactive: -0.907,inactive: -0.168,inactive: -1.1
O=C1c2ccccc2C(=O)c2c1ccc(O)c2O,inactive: 0.194,inactive: 0.226,inactive: -0.941
Oc1ccc(Cl)cc1Sc1cc(Cl)ccc1O,inactive: -1.23,inactive: -0.731,inactive: -0.56
Cc1nc(C2CCCCC2)c(-c2ccc(S(N)(=O)=O)c(F)c2)o1,inactive: -2.42,inactive: 0.63,inactive: 2.75
CC(C)N1CCN(c2ccc(N3CCN(c4ccc(OC[C@H]5OC[C@](Cn6cncn6)(c6ccc(F)cc6F)O5)cc4)CC3)cc2)C1=O,inactive: -1.36,inactive: 1.93,inactive: 1.13

SMILES,TEAD-luciferase reporter activity (compound concentration: 200 nM),TEAD-luciferase reporter activity (compound concentration: 2 uM),TEAD-luciferase reporter activity (compound concentration: 10 uM)
Cc1cccc(Nc2ccc([N+](=O)[O-])cc2S(=O)(=O)NC(=O)NC(C)C)c1,inactive: -0.82,inactive: -1.44,inactive: -0.106
NCc1ccccc1Sc1ccccc1CO [bipenamol],inactive: -0.696,inactive: 1.89,inactive: 0.706
O=C(NCCN1CCN(c2ncccn2)CC1)C12CC3CC(CC(C3)C1)C2 [Adatanserin hydrochloride],inactive: -0.0342,inactive: -1.74,inactive: -1.05
Cc1cc(-n2cccc2)c(S(C)(=O)=O)cc1C(=O)N=C(N)N [Eniporide mesilate],inactive: -0.101,inactive: -0.912,inactive: -1.67
N[C@H](C(=O)O)c1ccc(CO)c(O)c1 [Forfenimex],inactive: 0.105,inactive: 0.926,inactive: 0.512
CC[C@@H](C)C[C@@H](C)CCCCCCCCC(=O)N[C@H]1C[C@@H](O)[C@@H](NCCN)NC(=O)[C@@H]2[C@@H](O)CCN2C(=O)[C@H]([C@H](O)CCN)NC(=O)[C@H]([C@H](O)[C@@H](O)c2ccc(O)cc2)NC(=O)[C@@H]2C[C@@H](O)CN2C(=O)[C@H]([C@@H](C)O)NC1=O [caspofungin acetate],inactive: -1.02,inactive: -1.57,inactive: -0.853
Nc1nc(N)c(-c2cccc(Cl)c2Cl)c(CF)n1,inactive: -0.773,inactive: -0.9,inactive: -1.66
COc1cccc(CC(=O)N2CCN(C(=O)c3ccc(Cl)cc3)CC2)c1,inactive: -0.149,inactive: -0.392,inactive: 0.162
O=C1c2ccccc2-c2c1c1ccccc1c(=O)n2CCNCCO [oracin],inactive: 1.06,inactive: 0.352,inactive: -0.916
O=C(O)[C@@H]1C[C@@H](C2CCCCC2)CN1C(=O)CP(=O)(O)CCCCc1ccccc1 [Fosinoprilat],inactive: -2.71,inactive: -0.183,inactive: 2.4
COc1cc2c(cc1N1C[C@@H](C)N[C@@H](C)C1)N(C(=O)c1ccc(-c3ccc(-c4noc(C)n4)cc3C)cc1)CC2,inactive: 1.69,inactive: -0.463,inactive: 3.32
CCOC(=O)[C@H](CC(C)C)N(C)S(=O)(=O)c1ccc(Cn2c(C)nc3cnccc32)cc1 [Lexipafant],inactive: 0.261,–,inactive: 0.481
CCn1c(=O)c(N(C)C)nc2ccccc21,inactive: -0.0445,inactive: 0.837,inactive: 0.25
CC[C@H](C)[C@@H]1C(=O)N[C@H](C2Cc3ccccc3C2)C(=O)N1[C@@H](C(=O)N1CCOCC1)c1coc(C)n1 [retosiban],inactive: -0.464,inactive: 2.82,inactive: -0.99
CCC[C@H](C)Oc1nc(N)c2[nH]c(=O)n(CCCCCN3CCCCC3)c2n1,inactive: 1.74,inactive: -1.33,inactive: -0.266
c1ccc(Cn2c(N3CCNCC3)nc3ccccc32)cc1 [Lerisetron],inactive: -0.814,inactive: -0.168,inactive: 0.333
O=C(NNCS(=O)(=O)O)c1ccncc1,inactive: -1.56,inactive: -1.41,inactive: 1.34
FC(F)(F)COCC(F)(F)F,inactive: -0.852,inactive: -1.25,inactive: 0.271
COc1ccccc1C(=O)N1CC(N(C)c2ccccc2C)C1,inactive: 4.21,–,inactive: -0.349
O=C(c1ccccc1)N1CCC(C(=O)N2CCC(N3CCCC3=O)CC2)CC1,inactive: -1.11,–,inactive: 1.88
CC(C)C[C@H](NC(=O)[C@@H](COC(C)(C)C)NC(=O)[C@H](Cc1ccc(O)cc1)NC(=O)[C@H](CO)NC(=O)[C@H](Cc1c[nH]c2ccccc12)NC(=O)[C@H](Cc1c[nH]cn1)NC(=O)[C@@H]1CCC(=O)N1)C(=O)N[C@@H](CCCNC(=N)N)C(=O)N1CCC[C@H]1C(=O)NNC(N)=O [goserelin],–,inactive: -0.602,–
CC(C)C[C@H](NC(=O)[C@@H](COC(C)(C)C)NC(=O)[C@H](Cc1ccc(O)cc1)NC(=O)[C@H](CO)NC(=O)[C@H](Cc1c[nH]c2ccccc12)NC(=O)[C@H](Cc1c[nH]cn1)NC(=O)[C@@H]1CCC(=O)N1)C(=O)N[C@@H](CCCNC(=N)N)C(=O)N1CCC[C@H]1C(=O)NNC(N)=O [Goserelin],inactive: -1.49,–,inactive: -0.0402
"CN/C(=N/CCSCc1nc[nH]c1C)NC#N [cimetidine, Metatron]",–,inactive: -0.818,–
CN/C(=N/CCSCc1nc[nH]c1C)NC#N [Cimetidine],inactive: -2.75,–,inactive: 2.9
Cc1c(-c2ccccc2F)[nH]c(N)c1C#N,inactive: 1.57,inactive: 0.68,active: 5.13

# Pulled one by one from the list above, 2 records:
SMILES,TEAD-luciferase reporter activity (compound concentration: 200 nM),TEAD-luciferase reporter activity (compound concentration: 2 uM),TEAD-luciferase reporter activity (compound concentration: 10 uM)
O=c1nc(-c2ccccc2)c2cc(Cl)ccc2n1CC(F)(F)F [fluquazone],inactive: 1.63,inactive: -2.26,inactive: 3.49
CN(C)Cc1ccc(CSCCNC2=NS(=O)(=O)c3cscc32)o1,inactive: -0.907,inactive: -0.168,inactive: -1.1
